From patent publication US20260191793A1, “HBV SPECIFIC EXOSOMES AND USES THEREOF” (priority 2022, published 2026)
Some entries share one result that the patent states for a list of compounds.

Tested on: HBV replication in HepDE19 cells
Experiment: Suppression of HBV replication in HepDE19 cells by synthetic gRNA/Cas9 RNPs, one-time transfection (ELISA, real-time PCR, RNAscope)
Assay type: cell-based, Hepatitis B virus (HBV)
Conditions: one-time transfection with a single dose in HBV-infected hepatocytes, vs gRNAc (FIG. 2-4)
Experimental: The HepDE19 cell line is tetracycline-controlled HBV stable cells maintained in the presence of 500 μg/ml G418 and 1 μg/ml tetracycline (Tet). Upon withdrawing Tet from the culture fluid of HepDE19 cells, pgRNA transcription, HBV DNA replication, cccDNA formation, and HBV e antigen (HBeAg) production gradually increase in a time-dependent manner. To induce HBV replication, the cells were cultured in a Tet-free medium for 0-10 days, followed by measuring the expression of HBV antigens, HBV cccDNA, and pgRNA using methods previously described. For cell transfection, HepDE19 cells were cultured in Tet-free medium for 2 days. […]
The levels of HBsAg and HBeAg in the supernatants of cell cultures were determined by ELISA (Cat #KA0286 and NBP2-600029, Novus Biologicals, Littleton, CO) according to the manufacturer's protocol. The optical density of antigen levels was measured at 450 nm using a microplate spectrophotometer. […]
Total RNA was extracted from the cell pellets by the RNeasy Mini kit (Cat #74104, QIAGEN, Germantown, MD), and 1 μg RNA was converted to cDNA using the Applied Biosystems High-Capacity cDNA Reverse Transcription Kit (Cat #43-688-14, ThermoFisher, Waltham, MA). Quantitative real-time PCR (real-time-qPCR) was performed using iTaq Universal SYBR Green Supermix (Cat #1725124, Bio-Rad, Hercules, CA). […]

GTTATCGCTGGATGTGTCTGNGG (guide GUUAUCGCUGGAUGUGUCUGNGG; complexed with Cas9 protein, chemistry not fully specified) [gRNA5, tested as synthetic gRNA/Cas9 RNP]
reduction in HBV transcripts (DNA/RNA/antigens): > 60%
